Laboratory results: the supplement of paper PMC10849652
The list shows a part of the results.

By UniProt entry, the sequences of proteins in these tests, tags left out. Where a name states a change or a piece, a line headed by the entry shows the natural chain unless it says otherwise.
UniProt P62699: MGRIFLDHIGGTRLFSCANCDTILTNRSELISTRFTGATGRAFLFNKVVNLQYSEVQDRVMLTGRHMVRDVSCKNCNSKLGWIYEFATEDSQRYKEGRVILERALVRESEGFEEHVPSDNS
UniProt O75152: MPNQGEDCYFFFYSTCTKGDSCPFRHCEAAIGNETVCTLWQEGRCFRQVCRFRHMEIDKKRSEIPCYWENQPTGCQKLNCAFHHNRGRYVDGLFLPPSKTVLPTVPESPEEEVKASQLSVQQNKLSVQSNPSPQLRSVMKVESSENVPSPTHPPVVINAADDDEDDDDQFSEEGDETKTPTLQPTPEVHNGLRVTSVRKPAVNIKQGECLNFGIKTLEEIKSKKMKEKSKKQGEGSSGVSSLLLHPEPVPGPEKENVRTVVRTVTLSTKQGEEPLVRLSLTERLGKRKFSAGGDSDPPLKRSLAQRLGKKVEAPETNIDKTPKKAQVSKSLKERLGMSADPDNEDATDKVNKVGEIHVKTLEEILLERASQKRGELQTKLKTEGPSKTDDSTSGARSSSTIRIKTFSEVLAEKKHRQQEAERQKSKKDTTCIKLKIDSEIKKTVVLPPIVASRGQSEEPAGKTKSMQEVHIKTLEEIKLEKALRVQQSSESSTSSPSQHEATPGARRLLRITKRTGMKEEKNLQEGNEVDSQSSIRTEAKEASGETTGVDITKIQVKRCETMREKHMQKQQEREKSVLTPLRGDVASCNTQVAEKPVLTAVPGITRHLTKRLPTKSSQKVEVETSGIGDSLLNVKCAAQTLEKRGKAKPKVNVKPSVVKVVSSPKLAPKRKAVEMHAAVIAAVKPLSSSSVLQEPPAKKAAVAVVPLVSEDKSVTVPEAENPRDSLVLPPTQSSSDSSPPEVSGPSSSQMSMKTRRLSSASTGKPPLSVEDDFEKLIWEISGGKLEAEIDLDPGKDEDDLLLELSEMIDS
UniProt O15156: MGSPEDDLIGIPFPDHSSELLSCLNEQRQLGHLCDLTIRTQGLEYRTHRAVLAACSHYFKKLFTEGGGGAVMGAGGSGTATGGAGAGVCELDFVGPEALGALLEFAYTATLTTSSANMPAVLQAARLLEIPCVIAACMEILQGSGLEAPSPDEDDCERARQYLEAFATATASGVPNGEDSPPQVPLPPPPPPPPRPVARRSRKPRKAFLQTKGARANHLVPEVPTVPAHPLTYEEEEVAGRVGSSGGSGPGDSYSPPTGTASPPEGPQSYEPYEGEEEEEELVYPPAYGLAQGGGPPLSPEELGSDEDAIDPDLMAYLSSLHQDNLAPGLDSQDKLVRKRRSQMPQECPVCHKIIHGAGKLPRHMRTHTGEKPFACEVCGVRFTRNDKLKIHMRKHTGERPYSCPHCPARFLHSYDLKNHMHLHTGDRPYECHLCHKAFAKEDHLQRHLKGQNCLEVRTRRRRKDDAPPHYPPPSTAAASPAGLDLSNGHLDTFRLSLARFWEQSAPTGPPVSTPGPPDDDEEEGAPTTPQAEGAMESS
UniProt Q96JP5: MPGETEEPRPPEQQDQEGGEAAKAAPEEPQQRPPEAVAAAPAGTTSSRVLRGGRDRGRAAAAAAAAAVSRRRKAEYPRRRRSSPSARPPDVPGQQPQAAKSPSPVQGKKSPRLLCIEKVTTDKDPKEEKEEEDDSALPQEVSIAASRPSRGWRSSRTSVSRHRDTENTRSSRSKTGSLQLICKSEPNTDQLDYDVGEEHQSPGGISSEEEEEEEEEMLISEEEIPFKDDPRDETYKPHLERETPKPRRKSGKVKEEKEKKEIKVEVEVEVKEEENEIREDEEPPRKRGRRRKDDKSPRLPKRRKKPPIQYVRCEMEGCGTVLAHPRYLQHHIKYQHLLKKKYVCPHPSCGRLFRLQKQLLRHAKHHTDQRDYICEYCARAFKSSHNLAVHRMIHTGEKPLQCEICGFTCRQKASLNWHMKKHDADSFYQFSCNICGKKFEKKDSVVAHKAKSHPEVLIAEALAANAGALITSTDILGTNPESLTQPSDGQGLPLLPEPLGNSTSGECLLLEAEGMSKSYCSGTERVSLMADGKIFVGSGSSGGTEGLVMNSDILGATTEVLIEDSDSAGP
UniProt Q9NYG2: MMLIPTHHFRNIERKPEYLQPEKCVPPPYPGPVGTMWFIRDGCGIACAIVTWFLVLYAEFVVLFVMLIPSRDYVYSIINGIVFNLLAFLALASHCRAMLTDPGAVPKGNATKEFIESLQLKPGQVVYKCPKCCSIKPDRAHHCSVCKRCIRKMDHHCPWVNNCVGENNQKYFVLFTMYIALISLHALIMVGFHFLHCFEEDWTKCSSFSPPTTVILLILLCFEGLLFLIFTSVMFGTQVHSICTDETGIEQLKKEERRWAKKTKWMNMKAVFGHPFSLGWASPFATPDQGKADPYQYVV
UniProt P16989, whole entry, looked up: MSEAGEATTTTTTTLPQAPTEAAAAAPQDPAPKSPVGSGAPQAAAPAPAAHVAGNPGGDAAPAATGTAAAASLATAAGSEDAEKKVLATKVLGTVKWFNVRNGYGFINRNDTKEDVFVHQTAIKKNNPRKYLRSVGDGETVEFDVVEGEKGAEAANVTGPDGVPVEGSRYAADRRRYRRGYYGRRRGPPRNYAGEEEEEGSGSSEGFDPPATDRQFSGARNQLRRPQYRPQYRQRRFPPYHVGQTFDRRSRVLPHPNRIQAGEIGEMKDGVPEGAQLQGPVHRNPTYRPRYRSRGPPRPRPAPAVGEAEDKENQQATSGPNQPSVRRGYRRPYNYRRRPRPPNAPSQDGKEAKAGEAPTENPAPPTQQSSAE
UniProt Q8WU90: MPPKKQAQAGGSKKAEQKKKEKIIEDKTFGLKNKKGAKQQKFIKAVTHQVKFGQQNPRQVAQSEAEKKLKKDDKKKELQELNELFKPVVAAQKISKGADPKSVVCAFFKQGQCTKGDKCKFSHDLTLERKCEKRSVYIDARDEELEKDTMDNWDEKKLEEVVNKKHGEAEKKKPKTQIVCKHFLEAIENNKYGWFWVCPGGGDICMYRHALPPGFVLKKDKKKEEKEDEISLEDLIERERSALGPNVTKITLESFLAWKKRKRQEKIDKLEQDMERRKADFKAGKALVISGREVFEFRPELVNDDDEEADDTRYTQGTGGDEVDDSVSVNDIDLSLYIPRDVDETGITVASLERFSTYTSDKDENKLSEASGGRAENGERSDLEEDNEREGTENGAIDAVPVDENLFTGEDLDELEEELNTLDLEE
UniProt Q96K21: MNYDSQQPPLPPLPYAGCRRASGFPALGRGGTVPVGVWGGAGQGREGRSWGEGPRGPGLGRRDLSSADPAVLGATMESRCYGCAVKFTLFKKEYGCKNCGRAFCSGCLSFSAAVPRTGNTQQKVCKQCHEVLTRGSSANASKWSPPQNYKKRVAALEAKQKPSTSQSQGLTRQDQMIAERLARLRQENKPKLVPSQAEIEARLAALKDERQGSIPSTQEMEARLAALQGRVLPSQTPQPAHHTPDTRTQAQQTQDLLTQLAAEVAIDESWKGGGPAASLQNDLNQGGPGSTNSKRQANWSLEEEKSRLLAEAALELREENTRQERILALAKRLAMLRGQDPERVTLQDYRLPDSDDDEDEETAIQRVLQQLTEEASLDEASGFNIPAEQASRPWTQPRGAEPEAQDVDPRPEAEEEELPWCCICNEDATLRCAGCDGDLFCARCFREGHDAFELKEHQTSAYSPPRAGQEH
UniProt Q9ULJ3: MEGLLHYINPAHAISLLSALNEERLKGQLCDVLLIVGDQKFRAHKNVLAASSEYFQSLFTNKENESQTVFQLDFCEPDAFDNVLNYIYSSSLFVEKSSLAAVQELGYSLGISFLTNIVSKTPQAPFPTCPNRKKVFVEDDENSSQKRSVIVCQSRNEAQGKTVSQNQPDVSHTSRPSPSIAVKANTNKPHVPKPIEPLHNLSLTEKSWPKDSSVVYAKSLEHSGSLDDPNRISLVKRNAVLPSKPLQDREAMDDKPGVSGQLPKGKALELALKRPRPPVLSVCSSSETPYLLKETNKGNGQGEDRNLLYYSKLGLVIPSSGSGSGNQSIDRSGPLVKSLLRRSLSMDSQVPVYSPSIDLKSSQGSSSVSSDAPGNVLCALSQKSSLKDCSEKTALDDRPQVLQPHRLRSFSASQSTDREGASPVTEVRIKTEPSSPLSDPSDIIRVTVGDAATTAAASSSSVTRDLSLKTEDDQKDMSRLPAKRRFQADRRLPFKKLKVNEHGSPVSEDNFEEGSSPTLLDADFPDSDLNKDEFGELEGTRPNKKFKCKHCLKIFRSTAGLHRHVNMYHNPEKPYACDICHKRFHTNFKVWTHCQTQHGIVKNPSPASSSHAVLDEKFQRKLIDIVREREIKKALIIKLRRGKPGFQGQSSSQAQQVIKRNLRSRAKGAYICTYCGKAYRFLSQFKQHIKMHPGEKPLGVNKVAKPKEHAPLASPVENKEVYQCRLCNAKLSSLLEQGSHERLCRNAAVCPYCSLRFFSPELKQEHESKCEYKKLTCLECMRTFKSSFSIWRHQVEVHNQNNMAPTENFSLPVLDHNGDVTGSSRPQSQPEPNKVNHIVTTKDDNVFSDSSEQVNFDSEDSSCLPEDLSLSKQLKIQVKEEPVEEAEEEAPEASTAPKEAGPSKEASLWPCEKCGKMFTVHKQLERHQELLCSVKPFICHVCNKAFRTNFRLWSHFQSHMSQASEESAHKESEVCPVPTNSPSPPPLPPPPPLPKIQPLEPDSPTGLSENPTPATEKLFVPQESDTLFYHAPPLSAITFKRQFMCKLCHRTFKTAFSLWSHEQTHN
UniProt Q9NQH7: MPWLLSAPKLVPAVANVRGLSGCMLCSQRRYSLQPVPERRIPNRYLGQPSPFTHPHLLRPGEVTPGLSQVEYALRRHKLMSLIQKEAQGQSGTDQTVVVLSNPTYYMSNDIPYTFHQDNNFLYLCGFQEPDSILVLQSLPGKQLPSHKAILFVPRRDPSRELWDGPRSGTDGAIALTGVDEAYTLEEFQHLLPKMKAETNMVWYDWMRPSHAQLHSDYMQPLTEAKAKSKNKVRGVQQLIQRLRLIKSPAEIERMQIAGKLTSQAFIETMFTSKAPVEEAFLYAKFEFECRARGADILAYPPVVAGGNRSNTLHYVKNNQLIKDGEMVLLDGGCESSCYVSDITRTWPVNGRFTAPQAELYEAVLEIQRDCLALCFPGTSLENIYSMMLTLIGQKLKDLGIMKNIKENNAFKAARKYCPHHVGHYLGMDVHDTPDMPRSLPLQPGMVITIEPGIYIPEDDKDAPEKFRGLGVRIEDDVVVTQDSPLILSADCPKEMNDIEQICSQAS
UniProt Q9Y2Z4: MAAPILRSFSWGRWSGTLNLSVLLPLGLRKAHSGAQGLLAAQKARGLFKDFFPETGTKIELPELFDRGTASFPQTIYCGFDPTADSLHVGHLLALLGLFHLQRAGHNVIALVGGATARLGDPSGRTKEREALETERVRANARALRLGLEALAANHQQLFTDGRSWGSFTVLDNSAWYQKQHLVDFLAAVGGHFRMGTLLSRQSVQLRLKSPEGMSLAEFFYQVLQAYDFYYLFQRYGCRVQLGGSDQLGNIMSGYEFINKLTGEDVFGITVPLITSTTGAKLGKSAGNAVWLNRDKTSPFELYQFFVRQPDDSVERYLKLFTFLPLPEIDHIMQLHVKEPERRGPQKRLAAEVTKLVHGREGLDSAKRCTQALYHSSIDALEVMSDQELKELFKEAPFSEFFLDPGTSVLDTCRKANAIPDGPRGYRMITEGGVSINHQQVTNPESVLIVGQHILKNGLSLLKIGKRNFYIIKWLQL
UniProt Q7Z2W4: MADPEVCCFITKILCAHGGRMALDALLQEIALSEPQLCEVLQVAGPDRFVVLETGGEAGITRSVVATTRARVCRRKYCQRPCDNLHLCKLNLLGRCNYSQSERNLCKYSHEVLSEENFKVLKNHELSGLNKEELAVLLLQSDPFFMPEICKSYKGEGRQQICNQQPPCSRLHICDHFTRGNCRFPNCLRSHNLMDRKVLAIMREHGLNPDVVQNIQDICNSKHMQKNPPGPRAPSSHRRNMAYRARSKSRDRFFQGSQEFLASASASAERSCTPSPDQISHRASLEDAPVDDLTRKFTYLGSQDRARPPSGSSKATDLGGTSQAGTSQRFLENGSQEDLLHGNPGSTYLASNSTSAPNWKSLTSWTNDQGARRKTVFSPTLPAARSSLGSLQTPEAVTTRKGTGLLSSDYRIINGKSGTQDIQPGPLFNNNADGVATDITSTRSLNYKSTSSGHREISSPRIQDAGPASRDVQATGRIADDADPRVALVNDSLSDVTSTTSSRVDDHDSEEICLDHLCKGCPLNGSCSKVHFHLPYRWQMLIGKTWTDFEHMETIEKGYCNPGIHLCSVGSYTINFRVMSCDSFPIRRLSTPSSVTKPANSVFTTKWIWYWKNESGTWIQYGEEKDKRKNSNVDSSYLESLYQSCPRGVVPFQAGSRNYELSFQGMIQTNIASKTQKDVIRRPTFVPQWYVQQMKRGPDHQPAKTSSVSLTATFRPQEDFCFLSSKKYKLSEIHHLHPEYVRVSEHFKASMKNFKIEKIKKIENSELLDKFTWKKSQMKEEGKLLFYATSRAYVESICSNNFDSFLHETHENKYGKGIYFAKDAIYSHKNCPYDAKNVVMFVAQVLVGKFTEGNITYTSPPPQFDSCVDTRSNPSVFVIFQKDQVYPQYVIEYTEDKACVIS

Compound: C1=CC=C(C=C1)[C@H](COC2=CC3=C(C=C2)NC(=O)N3)NC(=O)C4=CC=CN(C4=O)CC5=CC(=C(C=C5)F)F
Test: log2 fold change, soluble protein after heating vs DMSO (PISA); higher = thermal stabilisation; K562 lysate, 10 uM; active = over 0.2 and 3.5 SD of the protein, either way, in both replicates (recomputed)
Procedure, shortened: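 Values give the log-two fold change in thermal stability against solvent controls, from duplicates. Crude K562 extract at 1 mg/mL protein, made by dounce homogenisation in PBS pH 7.4 with 1 mM MgCl2, was treated with 10 μM compound for 30 min. After 3 min heating across 48°C-58°C, aliquots were pooled, adjusted to 0.5% NP-40 at 4°C and centrifuged at 21,000xg for 90 min. The supernatant was measured by TMTpro 16plex LC-MS/MS with channel sums equalised.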

Row | Target | log2 fold change
1 | YPEL5 (UniProt P62699) | inactive: 0.05
2 | YIF1A (UniProt O95070) | inactive: -0.16
3 | ZC3H11A (UniProt O75152) | inactive: -0.015
4 | ZFYVE28 (UniProt Q9HCC9) | inactive: 0.05
5 | XRCC1 (UniProt P18887) | inactive: 0.039
6 | ZFPM2 (UniProt Q8WW38) | inactive: 0.116
7 | ZBTB7B isoform 2 (UniProt O15156) | inactive: -0.019
8 | XRCC5 (UniProt P13010) | inactive: 0.017
9 | ZBTB10 (UniProt Q96DT7) | inactive: 0
10 | ZFP91 (UniProt Q96JP5) | inactive: 0.04
11 | ZDHHC3 isoform 2 (UniProt Q9NYG2) | inactive: -0.11
12 | XPO5 (UniProt Q9HAV4) | inactive: -0.046
13 | YLPM1 (UniProt P49750) | inactive: -0.029
14 | ZFAND5 (UniProt O76080) | inactive: 0.093
15 | YBX3 (UniProt P16989) | inactive: 0.085
16 | ZC3H15 (UniProt Q8WU90) | inactive: 0.057
17 | ZFYVE19 (UniProt Q96K21) | inactive: 0.076
18 | YWHAH (UniProt Q04917) | inactive: 0.001
19 | ZBTB21 (UniProt Q9ULJ3) | inactive: -0.014
20 | XPNPEP3 (UniProt Q9NQH7) | inactive: -0.04
21 | YARS2 (UniProt Q9Y2Z4) | inactive: 0.038
22 | ZC3H13 (UniProt Q5T200) | inactive: -0.005
23 | ZC3HAV1 (UniProt Q7Z2W4) | inactive: 0.024

No new results follow: an excerpt of the list.
Row | Target | log2 fold change
1 | YPEL5 (UniProt P62699) | inactive: 0.05
2 | YIF1A (UniProt O95070) | inactive: -0.16
3 | ZC3H11A (UniProt O75152) | inactive: -0.015
4 | ZFYVE28 (UniProt Q9HCC9) | inactive: 0.05
5 | XRCC1 (UniProt P18887) | inactive: 0.039
